In publication PMC5859096:

Legend:
[1] = molecular target: His6-BldC(H46A) (Streptomyces coelicolor) (UniProt A0A0M7QSG5); assay: fluorescence polarization; details: FP: 25 mM Tris pH 7.5, 150 mM NaCl, 1 nM F-DNA, 25 C; recombinant protein; protein details: His6; label: 5' fluorescein on top strand; letters put together from the description
[2] = molecular target: His6-BldC(R30A) (Streptomyces coelicolor) (UniProt A0A0M7QSG5); assay: fluorescence polarization; details: FP: 25 mM Tris pH 7.5, 150 mM NaCl, 1 nM F-DNA, 25 C; recombinant protein; protein details: His6; label: 5' fluorescein on top strand; letters put together from the description
[3] = molecular target: His6-BldC(G44E) (Streptomyces coelicolor) (UniProt A0A0M7QSG5); assay: fluorescence polarization; details: FP: 25 mM Tris pH 7.5, 150 mM NaCl, 1 nM F-DNA, 25 C; recombinant protein; protein details: His6; label: 5' fluorescein on top strand; letters put together from the description
[4] = molecular target: SeMet BldC(L43M-L58M), tag-free (Streptomyces coelicolor) (UniProt A0A0M7QSG5); assay: crystal structure (3.28 A); details: recombinant protein; letters put together from the description
[5] = molecular target: T1, Tag-free BldC (Streptomyces coelicolor) (UniProt A0A0M7QSG5); assay: crystallization; details: same crystals as SeMet mutant; recombinant protein; letters put together from the description
[6] = molecular target: T2, His6-BldC (Streptomyces coelicolor) (UniProt A0A0M7QSG5); assay: EMSA; details: EMSA: 0.004-1.2 uM BldC, 20 min RT, 5% gel; recombinant protein; protein details: His6 (pET15b)
[7] = molecular target: T2, His6-BldC (Streptomyces coelicolor); assay: fluorescence polarization; details: FP: 25 mM Tris pH 7.5, 150 mM NaCl, 1 nM F-DNA, 25 C; recombinant protein; protein details: His6 (pET15b); label: 5' fluorescein on top strand; letters put together from the description
[8] = molecular target: T1, Tag-free BldC (Streptomyces coelicolor); assay: crystal structure (3.09 A); details: 0.1 M CaCl2 in crystallization; recombinant protein

**Q.** Does “TTCAATTCGGACAATTCGGACA / AATGTCCGAATTGTCCGAATTG [whiI opt 22mer (FP)]” bind [1]?
**A.** no binding

**Q.** Does “TTCAATTCGGACAATTCGGACA / AATGTCCGAATTGTCCGAATTG [whiI opt 22mer (FP)]” bind [2]?
**A.** no binding

**Q.** Does “TTCAATTCGGACAATTCGGACA / AATGTCCGAATTGTCCGAATTG [whiI opt 22mer (FP)]” bind [3]?
**A.** no binding

**Q.** Does “TTCAATTCGGACAATTCGGACA / AATGTCCGAATTGTCCGAATTG [whiI opt 22mer (crystal)]” bind [4]?
**A.** binds

**Q.** Does “TTCAATTCGGACAATTCGGACA / AATGTCCGAATTGTCCGAATTG [whiI opt 22mer (crystal)]” bind [5]?
**A.** binds

**Q.** Does “TGTGTCCGAATTGCTCGGATTG (double strand) [whiI 22L]” bind [6]?
**A.** binds

**Q.** Does “TTCGGCCCGGACGGCCCGGACA / AATGTCCGGGCCGTCCGGGCCG [whiI opt AATT to GGCC]” bind [7]?
**A.** no binding

**Q.** Does “TGTCCGAATTGTCCGAATTG (double strand) [whiI 20R sym]” bind [6]?
**A.** binds

**Q.** Does “GCAATTCGGTCGAATTTC (double strand) [smeA-ssfA 18mer]” bind [8]?
**A.** binds

The exact form of at least one protein or probe is not confirmed. For part of these data: Negatives hold for the conditions tested.
